The values that follow come from patent US8580747B2, “Cyclic natriuretic peptide constructs” (Palatin Technologies, Inc., priority 2006, dated 2013).

The assay addresses T1, hNPR-A (Homo sapiens, UniProt P16066).
T1 sequence (P16066 33-1061): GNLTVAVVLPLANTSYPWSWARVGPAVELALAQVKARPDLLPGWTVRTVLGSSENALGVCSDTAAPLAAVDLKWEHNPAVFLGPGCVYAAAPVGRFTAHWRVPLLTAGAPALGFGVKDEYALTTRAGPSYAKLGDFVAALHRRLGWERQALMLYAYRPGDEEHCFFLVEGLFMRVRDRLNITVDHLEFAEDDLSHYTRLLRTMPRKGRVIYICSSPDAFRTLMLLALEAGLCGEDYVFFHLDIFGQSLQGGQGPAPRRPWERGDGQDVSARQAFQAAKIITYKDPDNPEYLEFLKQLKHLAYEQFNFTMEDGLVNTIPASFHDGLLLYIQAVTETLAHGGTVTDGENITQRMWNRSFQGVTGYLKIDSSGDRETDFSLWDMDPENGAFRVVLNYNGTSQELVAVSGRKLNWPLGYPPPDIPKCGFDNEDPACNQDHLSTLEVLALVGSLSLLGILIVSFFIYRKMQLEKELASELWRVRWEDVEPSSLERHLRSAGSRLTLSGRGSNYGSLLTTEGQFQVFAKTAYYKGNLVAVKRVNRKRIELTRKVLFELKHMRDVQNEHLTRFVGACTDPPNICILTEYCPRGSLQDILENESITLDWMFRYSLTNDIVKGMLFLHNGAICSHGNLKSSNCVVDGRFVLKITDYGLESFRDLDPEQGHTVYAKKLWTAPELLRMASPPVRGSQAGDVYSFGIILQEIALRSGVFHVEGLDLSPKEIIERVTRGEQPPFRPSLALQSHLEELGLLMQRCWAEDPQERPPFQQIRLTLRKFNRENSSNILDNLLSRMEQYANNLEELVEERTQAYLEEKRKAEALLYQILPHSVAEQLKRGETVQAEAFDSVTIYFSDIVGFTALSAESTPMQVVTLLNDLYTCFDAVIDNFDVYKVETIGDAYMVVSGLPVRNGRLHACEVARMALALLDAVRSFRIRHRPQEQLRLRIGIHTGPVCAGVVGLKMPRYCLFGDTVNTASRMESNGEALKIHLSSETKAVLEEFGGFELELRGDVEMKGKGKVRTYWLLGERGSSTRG
The assay is described as follows: Accumulation of intracellular cGMP in HEK-293 cells expressing recombinant hNPR-A (EC50). The class given is cell-based. How it is done:
Pelleted cells were resuspended in Hank's Balanced Salt Solution (HBSS) containing 10 mM Hepes (pH 7.4), 5 mM MgCl2, 200 mM L-glutamine, 1 mM 1,10-phenanthroline and BSA (0.5 mg/mL). Following centrifugation, cells were resuspended in the above buffer supplemented with 0.5 mM 3-isobutyl-1-methylxanthine (IBMX). […] The reaction was terminated by lysis of the cells with temperature shock. […] Accumulation of cGMP was measured using the cGMP Flashplate RIA (Perkin-Elmer). Data analysis and EC50 values were determined by using nonlinear regression analysis with GraphPad Prism® software.

As usually defined, the EC50 is the concentration needed to bring the measured effect to its halfway point.

`CCCC[C@@H]1NC[C@H](C(=O)N[C@H]2CSSC[C@@H](C(=O)N[C@@H](Cc3ccc(O)cc3)C(=O)N3C[C@H](C(N)=O)NC(=O)[C@@H]3CCCNC(=N)N)NC(=O)[C@H](CO)NC(=O)[C@H]([C@@H](C)CC)NC(=O)[C@H](CCCNC(=N)N)NC(=O)[C@H](CC(=O)O)NC(=O)[C@H](CCCC)NC(=O)[C@H](CCCNC(=N)N)NC(=O)CNC(=O)CNC(=O)[C@H](Cc3ccccc3)NC(=O)[C@H](Cc3c[nH]cn3)NC2=O)NC1=O` [1-18]: the EC50 worked out at 200 pM.
